# Reference: the supplement of paper PMC7858590
# Several values for one entry are separate records, joined by “and”; a condition that tells them apart may be missing. Equal entries are not always repeated. ± gives the standard deviation of the averaged measurements. Whole data set: some 3,800 compounds, median “cell shape (eccentricity) Z-score vs DMSO control” near 1.1, cut for the lowest 2% near -4.7. This is one part of the list.
# System: human monocyte-derived macrophages (M0)
# Test: cell shape (eccentricity) Z-score vs DMSO control; higher = more elongated, M2-like morphology
# Conditions: 20 µM; 24 h; macrophage state: M0 (M-CSF)
row,Compound,cell shape (Z-score)
1,CC(=O)OCC/C(=C\CC1(O)C(C)CCC2C(C)(C)CCCC21C)COC(C)=O (stereo unspecified),0.661
2,C[C@@H]1O[C@@H](OCC2OC(OC3C(OC4C(Oc5c(-c6ccc(O)c(O)c6)oc6cc(O)cc(O)c6c5=O)OC(CO)C(O)C4O)OC(CO)C(O)C3O)C(O)C(O)C2O)[C@H](O)[C@H](O)[C@H]1O (stereo partly specified),1.22
3,CC(C)NC[C@H](O)COc1cccc2[nH]ccc12,0.164
4,CC(=O)[C@H]1CCC2C3C[C@H](C)C4=CC(=O)CC[C@]4(C)C3[C@@H](O)C[C@@]21C (stereo partly specified),1.21
5,COc1ccc2cc([C@H](C)C(=O)O)ccc2c1,0.686
6,OCC1OC(OCC2OC(NCCc3ccc(O)cc3)C(O)C(O)C2O)C(O)C(O)C1O (stereo unspecified),0.565
7,CCc1cn(C2OCC(O)C2CO)c(=O)nc1O (stereo unspecified),0.584
8,c1ccc(C(NCc2cccnc2)(c2ccccc2)c2ccccc2)cc1,0.232
9,C=C1C(=O)[C@@]23CCC4[C@](C)(C(=O)O)CCC[C@@]4(C)[C@@H]2CC[C@@H]1C3 (stereo partly specified),2.22
10,Cc1nc(Nc2ncc(C(=O)Nc3c(C)cccc3Cl)s2)cc(N2CCN(CCO)CC2)n1,5.52 and 8.76
11,C/C=C1/[C@H](O[C@@H]2O[C@H](CO)[C@@H](O)[C@H](O)[C@H]2O)OC=C(C(=O)OC)[C@H]1CC(=O)OCCc1ccc(OC(=O)C[C@@H]2C(C(=O)OC)=CO[C@@H](O[C@@H]3O[C@H](CO)[C@@H](O)[C@H](O)[C@H]3O)/C2=C/C)cc1,1.16
12,CC1(C)[C@H](O)CC[C@@]2(C)[C@@H]3CC[C@](C)(C(O)CO)CC3=CC[C@H]12 (stereo partly specified),1.1
13,CC1=CC(=O)CC2C1(C)CCC(C)C2(C)CCC(C)CC(=O)O (stereo unspecified),0.972
14,Nc1ccc(S(=O)(=O)Nc2ccc(Cl)nn2)cc1,-0.192
15,C=C(C)[C@@H]1CC[C@]2(C(=O)O)CC[C@]3(C)[C@H](CCC4[C@@]5(C)CCC(=O)C(C)(C)C5C(O)C[C@]43C)C12 (stereo partly specified),2.32 ± 2.1
16,CN(C(=O)c1c(O)c2ccccc2n(C)c1=O)c1ccccc1,0.342
17,COc1ccc(CN(CCN(C)C)c2ccccn2)cc1,1.96
18,COCCc1ccc(OCC(O)CNC(C)C)cc1 (stereo unspecified),-2.13
19,CN1C2CCC1CC(OC(=O)c1c[nH]c3ccccc13)C2 (stereo unspecified),-0.479
20,O=C(Cc1ccc(O)cc1)OC1[C@@H](O)[C@@H](O)C(OC(=O)Cc2ccc(O)cc2)[C@H](O)[C@@H]1O (stereo partly specified),2.31
21,COc1ccc(-c2oc3ccccc3c(=O)c2O)cc1OC,5.09

row,Compound,cell shape (Z-score)
1,COc1cc(/C=C/C(=O)CC(=O)/C=C/c2ccc(O)c(OC)c2)ccc1O,-0.792
2,COc1cc(O)c2c(=O)c(OC)c(-c3cc(O)c(OC)c(OC)c3)oc2c1,0.445 ± 0.68
3,COC(=O)C(Cc1c[nH]c2ccccc12)NC(=O)C(NC(=O)C(C)NC(=O)/C=C/C(=O)O)C(C)c1c[nH]c2ccccc12 (stereo unspecified),4.69
4,C[C@H](CO)N1C[C@H](C)[C@@H](CN(C)C(=O)Nc2cccc3ccccc23)Oc2ccc(NC(=O)c3ccncc3)cc2CC1=O,-1.04
5,CC(C)Oc1ccc2c(=O)cc(-c3ccccc3)oc2c1,3.09
6,COc1ccc(C(=O)c2ccccc2O)c(O)c1,0.554
7,CCOC(=O)NCC(Cc1ccc(OCCc2nc(-c3ccccc3)oc2C)cc1)NC(C)=CC(=O)c1ccc(C(F)(F)F)cc1 (stereo unspecified),4.13
8,Clc1ccc(Cn2c(CN3CCCC3)nc3ccccc32)cc1,0.213
9,CC1(C)CC[C@]2(C(=O)O[C@@H]3O[C@H](CO)[C@@H](O)[C@H](O)[C@H]3O)CC[C@]3(C)C(=CCC4[C@@]5(C)CC[C@H](O[C@@H]6O[C@H](CO)[C@@H](O)[C@H](O)[C@H]6O)[C@@](C)(CO)C5CC[C@]43C)[C@@H]2C1 (stereo partly specified),1.3
10,O=C1C(SCCO)=C(SCCO)C(=O)c2ccccc21,2.63
11,COc1ccc2cccc(N3CCN(CCNC(=O)c4ccc(F)cc4)CC3)c2c1,2.87
12,C=CCN1CCc2c(cc(O)c(O)c2Br)[C@@H](c2ccccc2)C1,0.855
13,Cc1cc(Nc2nc(N[C@@H](C)c3ncc(F)cn3)ncc2Cl)n[nH]1,7.45
14,CC(C)(C)NC(=O)[C@H]1CCC2C3CCC4NC(=O)C=C[C@]4(C)C3CC[C@@]21C (stereo partly specified),1.25
15,C[C@@H]1CC[C@]2(C(=O)OC3OC(COC4OC(CO)C(O[C@@H]5O[C@@H](C)[C@H](O)[C@@H](O)[C@H]5O)C(O)C4O)C(O)C(O)C3O)CC[C@]3(C)C(=CCC4[C@@]5(C)CC[C@@H](O)[C@](C)(C(=O)O)C5CC[C@]43C)C2[C@H]1C (stereo partly specified),1.12
16,CC(=O)Nc1cccc(O)c1,3.66
17,COC(=O)C1=CO[C@@H](O[C@@H]2O[C@H](CO)[C@@H](O)[C@H](O)[C@H]2O)[C@H]2[C@@H]1C=CC21C=C([C@H](C)OC(=O)/C=C/c2ccc(O)cc2)C(=O)O1 (stereo partly specified),2.22
18,CCc1oc2ccccc2c1C(=O)c1cc(Br)c(O)c(Br)c1,-1.07
19,COc1cc(C(C)=O)ccc1O[C@@H]1O[C@H](CO)[C@@H](O)[C@H](O)[C@H]1O,-0.109
20,C[C@@H]1O[C@@H](OC[C@H]2O[C@@H](c3c(O)cc4oc(-c5ccc(O)c(O)c5)cc(=O)c4c3O)[C@H](O)[C@@H](O)[C@@H]2O)[C@H](O)[C@H](O)[C@H]1O,-0.453
21,CO[C@H]1CC(O[C@@H]2/C(C)=C/C[C@@H]3C[C@@H](C[C@]4(CC[C@H](C)[C@@H](C5CCCCC5)O4)O3)OC(=O)[C@@H]3C=C(C)/C(=N/O)[C@H]4OC/C(=C\C=C\[C@@H]2C)[C@]43O)O[C@@H](C)C1O (stereo partly specified),8.19

# Given with tabs: two of the compounds above
row	Compound	cell shape (Z-score)
5	CC(C)Oc1ccc2c(=O)cc(-c3ccccc3)oc2c1	3.09
15	C[C@@H]1CC[C@]2(C(=O)OC3OC(COC4OC(CO)C(O[C@@H]5O[C@@H](C)[C@H](O)[C@@H](O)[C@H]5O)C(O)C4O)C(O)C(O)C3O)CC[C@]3(C)C(=CCC4[C@@]5(C)CC[C@@H](O)[C@](C)(C(=O)O)C5CC[C@]43C)C2[C@H]1C (stereo partly specified)	1.12

# Following part:

row,Compound,cell shape (Z-score)
1,C[C@@H]1O[C@@H](Oc2ccc(-c3coc4cc(O[C@@H]5O[C@@H](C)[C@H](O)[C@@H](O)[C@H]5O)cc(O)c4c3=O)cc2)[C@H](O)[C@H](O)[C@H]1O,-0.632
2,CCOC(=O)C12CC1C(=NO)c1ccccc1O2 (stereo unspecified),2.79
3,NS(=O)(=O)c1ccc(Cl)c(S(N)(=O)=O)c1,0.669
4,C/C(=C\C(=O)OCCCCCCCCC(=O)O)C[C@@H]1OC[C@H](C[C@@H]2O[C@H]2[C@@H](C)[C@H](C)O)[C@@H](O)[C@H]1O,0.257
5,CC(C)(C)NCC(O)c1cc(O)cc(O)c1 (stereo unspecified),2.12
6,C=C1C2=C(O[C@H](/C(C)=C/C(C)CC(C)CC)[C@@H](O)[C@@H]2O)C(=O)N1OC (stereo partly specified),0.252 ± 0.046
7,N#CC(=Cc1ccc(O)c(O)c1)C(=O)NCCCc1ccccc1,-1.56
8,C=C1CC/C=C(/C(=O)O)C[C@H](O)C2C1CC2(C)C (stereo partly specified),0.708
9,CC1=CCC(C(C)(C)O[C@@H]2O[C@H](C)[C@@H](O)[C@H](O)[C@H]2O)CC1 (stereo partly specified),0.119
10,CCC(C)C(=O)OCC1(c2ccc(C)cc2OC(=O)C(C)C)CO1 (stereo unspecified),0.487 ± 1.1
11,CCOC(=O)[C@H](CCc1ccccc1)N[C@@H](C)C(=O)N1Cc2ccccc2C[C@H]1C(=O)O,2.22
12,CC(C)CNc1ccnc(NCc2csc(-c3ccccc3)n2)n1,5.76
13,COc1cc2ncnc(Nc3ccc(F)c(Cl)c3)c2cc1OCCCN1CCOCC1,7.42
14,O=C1c2ccccc2C(Cc2ccncc2)(Cc2ccncc2)c2ccccc21,1.37
15,CC[C@H]1OC(=O)[C@H](C)[C@@H](O[C@H]2C[C@@](C)(OC)[C@@H](O)[C@H](C)O2)[C@H](C)[C@@H](O[C@@H]2O[C@H](C)C[C@H](N(C)C)[C@H]2O)[C@](C)(O)C[C@@H](C)/C(=N\OCOCCOC)[C@H](C)[C@@H](O)[C@]1(C)O,2.41
16,CN1CCC[C@@H]1CCO[C@](C)(c1ccccc1)c1ccc(Cl)cc1,2.98
17,CCOc1ccc(NC(C)=O)cc1,-2.72
18,C=CCNC1=C(Cl)C(=O)c2ccccc2C1=O,-1.29
19,c1ccc2sc(N3CCN(Cc4ccc5c(c4)OCO5)CC3)nc2c1,2.99
20,C#CCN(C)CCCOc1ccc(Cl)cc1Cl,0.86
21,CN(C)CCC=C1c2ccccc2C=Cc2ccccc21,2.48

# 19 entries from above, tab-delimited:
row	Compound	cell shape (Z-score)
1	C[C@@H]1O[C@@H](Oc2ccc(-c3coc4cc(O[C@@H]5O[C@@H](C)[C@H](O)[C@@H](O)[C@H]5O)cc(O)c4c3=O)cc2)[C@H](O)[C@H](O)[C@H]1O	-0.632
2	CCOC(=O)C12CC1C(=NO)c1ccccc1O2 (stereo unspecified)	2.79
3	NS(=O)(=O)c1ccc(Cl)c(S(N)(=O)=O)c1	0.669
4	C/C(=C\C(=O)OCCCCCCCCC(=O)O)C[C@@H]1OC[C@H](C[C@@H]2O[C@H]2[C@@H](C)[C@H](C)O)[C@@H](O)[C@H]1O	0.257
5	CC(C)(C)NCC(O)c1cc(O)cc(O)c1 (stereo unspecified)	2.12
6	C=C1C2=C(O[C@H](/C(C)=C/C(C)CC(C)CC)[C@@H](O)[C@@H]2O)C(=O)N1OC (stereo partly specified)	0.252 ± 0.046
7	N#CC(=Cc1ccc(O)c(O)c1)C(=O)NCCCc1ccccc1	-1.56
8	C=C1CC/C=C(/C(=O)O)C[C@H](O)C2C1CC2(C)C (stereo partly specified)	0.708
9	CC1=CCC(C(C)(C)O[C@@H]2O[C@H](C)[C@@H](O)[C@H](O)[C@H]2O)CC1 (stereo partly specified)	0.119
10	CCC(C)C(=O)OCC1(c2ccc(C)cc2OC(=O)C(C)C)CO1 (stereo unspecified)	0.487 ± 1.1
11	CCOC(=O)[C@H](CCc1ccccc1)N[C@@H](C)C(=O)N1Cc2ccccc2C[C@H]1C(=O)O	2.22
12	CC(C)CNc1ccnc(NCc2csc(-c3ccccc3)n2)n1	5.76
13	COc1cc2ncnc(Nc3ccc(F)c(Cl)c3)c2cc1OCCCN1CCOCC1	7.42
14	O=C1c2ccccc2C(Cc2ccncc2)(Cc2ccncc2)c2ccccc21	1.37
15	CC[C@H]1OC(=O)[C@H](C)[C@@H](O[C@H]2C[C@@](C)(OC)[C@@H](O)[C@H](C)O2)[C@H](C)[C@@H](O[C@@H]2O[C@H](C)C[C@H](N(C)C)[C@H]2O)[C@](C)(O)C[C@@H](C)/C(=N\OCOCCOC)[C@H](C)[C@@H](O)[C@]1(C)O	2.41
16	CN1CCC[C@@H]1CCO[C@](C)(c1ccccc1)c1ccc(Cl)cc1	2.98
17	CCOc1ccc(NC(C)=O)cc1	-2.72
18	C=CCNC1=C(Cl)C(=O)c2ccccc2C1=O	-1.29
19	c1ccc2sc(N3CCN(Cc4ccc5c(c4)OCO5)CC3)nc2c1	2.99

# (next part)

row,Compound,cell shape (Z-score)
1,CCN1CCC[C@H]1CNC(=O)c1c(O)c(Cl)cc(Cl)c1OC,3
2,COc1ccc(/C=C/C(=O)c2cc(O)ccc2O)cc1,2.34
3,Cc1ccc(C(=O)N(CCCN)[C@H](c2oc3cc(Cl)ccc3c(=O)c2Cc2ccccc2)C(C)C)cc1,3.83
4,C=C1CC(O)C2C(=C)C(=O)OC2C2C(=C)C(OC3OC(CO)C(O)C(OC(=O)/C=C/c4ccc(O)c(O)c4)C3O)CC12 (stereo unspecified),-1.95
5,O=C(NC1CCCCC1)NC1CCCCC1,0.784
6,COc1ccc2c(c1)C(=O)CC(c1ccccc1)O2 (stereo unspecified),3.59
7,CCCCNc1c(C(=O)OCC)c(C)nc2c1cnn2CC,0.725
8,CC(C)N1C[C@@H](C)[C@H](CN(C)Cc2ccc(Oc3ccccc3)cc2)Oc2c(NC(=O)c3ccncc3)cccc2C1=O,2.27
9,C[C@]12CC[C@H](O)CC1=CCC1C2CC[C@@]2(C)C1CC[C@@H]2C(=O)CO (stereo partly specified),-2.5
10,C[C@@H]1O[C@@H](O[C@H]2[C@H](O)[C@@H](O[C@@H]3O[C@H](CO)[C@@H](O)[C@H](O)[C@H]3O)[C@H](O[C@H]3CC[C@@]4(C)C(=CC[C@@H]5C4CC[C@@]4(C)C5C[C@@H]5O[C@]6(CC[C@@](C)(CO)O6)[C@@H](C)[C@@H]54)C3)O[C@@H]2CO)[C@H](O)[C@H](O)[C@H]1O (stereo partly specified),0.702
11,Clc1ccc(Nc2nnc(Cc3ccncc3)c3ccccc23)cc1,-1.51
12,C=C[C@@]1(C)CCC2C(=CCC3[C@]2(C)CCC[C@@]3(C)C(=O)O)C1 (stereo partly specified),0.629
13,O=C(Oc1cccc2cccnc12)c1ccccc1,2.15
14,CC(C)=CCOc1c2ccoc2cc2oc(=O)ccc12,0.398
15,CN1CCN(C2Cc3ccccc3Sc3ccc(Cl)cc32)CC1 (stereo unspecified),-1.87
16,COC(=O)C[C@H]1C(C)(C)C(=O)[C@@H]2CC3C4=CC(=O)O[C@@H](c5ccoc5)[C@]4(C)CCC3[C@@]1(C)C2=O (stereo partly specified),0.604
17,CCN(CC)CCNC(=O)c1c(C)[nH]c(/C=C2\C(=O)Nc3ccc(F)cc32)c1C,10.3 and 12.2
18,COc1ccc(C2CC(=O)c3c(O)cc(O[C@@H]4O[C@H](CO)[C@@H](OC5OCC(O)(CO)C5O)[C@H](O)[C@H]4O)cc3O2)cc1 (stereo partly specified),2.04
